Test results reported in paper PMC6639259.
These are yes or no findings as the source states them, for the method shown. For part of these data: Binding calls can cover weak binding; strength is not graded here.

Protein sequences, listed by entry. Tags and fused reporters are not part of them. Lines headed by an entry give the natural chain unless they say otherwise; changes in a name come on top.
UniProt Q7JJ13: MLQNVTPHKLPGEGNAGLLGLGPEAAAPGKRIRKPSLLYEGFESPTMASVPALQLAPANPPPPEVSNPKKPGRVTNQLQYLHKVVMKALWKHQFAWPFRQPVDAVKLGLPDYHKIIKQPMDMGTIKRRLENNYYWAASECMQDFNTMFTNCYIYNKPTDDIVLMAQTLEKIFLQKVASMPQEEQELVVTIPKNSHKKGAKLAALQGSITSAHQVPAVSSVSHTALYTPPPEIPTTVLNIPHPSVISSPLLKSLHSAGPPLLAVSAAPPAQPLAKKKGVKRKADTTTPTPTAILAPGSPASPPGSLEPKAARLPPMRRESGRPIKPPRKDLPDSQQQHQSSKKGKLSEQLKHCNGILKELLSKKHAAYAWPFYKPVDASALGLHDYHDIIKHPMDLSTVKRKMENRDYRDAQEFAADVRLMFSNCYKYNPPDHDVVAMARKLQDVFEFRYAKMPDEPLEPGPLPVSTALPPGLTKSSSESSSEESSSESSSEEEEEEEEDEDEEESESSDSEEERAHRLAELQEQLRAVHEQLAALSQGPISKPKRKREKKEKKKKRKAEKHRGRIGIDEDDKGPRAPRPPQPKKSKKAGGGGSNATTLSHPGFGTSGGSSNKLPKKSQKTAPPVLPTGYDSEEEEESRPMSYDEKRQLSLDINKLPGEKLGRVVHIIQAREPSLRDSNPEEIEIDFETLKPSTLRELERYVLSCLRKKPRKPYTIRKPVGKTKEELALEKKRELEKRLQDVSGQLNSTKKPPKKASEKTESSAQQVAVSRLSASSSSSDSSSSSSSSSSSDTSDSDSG

What was measured:
Experiment in all cases: two-hybrid; DUALhybrid Kit; pLexA-N bait and pGAD-HA prey vectors in yeast; ß-galactosidase assay (blue: interaction, white: no interaction)
[1] = molecular target: pLexA-BRD2 (truncated BRD2 bait lacking the bromodomains) (mouse) (UniProt Q7JJ13)
[2] = molecular target: pLexA-ET (ET domain of a BET protein) (mouse)
[3] = molecular target: pLexA-mB (region containing the motif B of a BET protein) (mouse)

binding [1]: binds
binding [2]: binds
binding [3]: no binding
B1: NIPBL prey clone (amino acids 212–449) (domain or fragment, UniProt Q6KCD5 212-449)
chain: AGGLRNIHDNKVSGPLSGNSANHHADNPRHGSSDDYLHMVHRLSSDDGDSSTMRNAASFPLRSPQPVCSPAGSDGTPKGSRPPLILQSQSLPCSSPRDVPPDILLDSPERKQKKQKKIKLGKDEKDQNEKAAMYDIISSPTKDSTKLTLRLSRVRSSDMDQQDDMLSGMENSNVSENDIPFNVQYPGQTSKTPITPQDVNRPLNAAQCLSQQEQTAFLPANQVPVLQQNTSVATKQPQ
